From patent US6559281B1, “Non-naturally occurring synthetic lytic peptides” (priority 1993, dated 2003)

Molecular target: T1, Trypsin (Bos taurus, UniProt P00760)
T1 sequence (P00760 24-246): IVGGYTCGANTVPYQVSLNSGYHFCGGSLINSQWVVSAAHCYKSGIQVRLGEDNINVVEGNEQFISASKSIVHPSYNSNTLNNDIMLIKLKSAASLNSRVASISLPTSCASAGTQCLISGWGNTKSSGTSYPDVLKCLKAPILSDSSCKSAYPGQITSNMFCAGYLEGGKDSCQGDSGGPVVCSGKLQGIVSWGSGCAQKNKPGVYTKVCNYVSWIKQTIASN
Experiment: Proteolytic resistance to trypsin digestion, quantified with modified TNBS assay
Conditions: HEPES pH 7.78, incubated 30 minutes, 440 nm

With `CC(C)C[C@H](NC(=O)[C@H](C)NC(=O)[C@H](CCCCN)NC(=O)[C@H](CCCCN)NC(=O)[C@H](CC(C)C)NC(=O)[C@H](C)NC(=O)[C@H](CCCCN)NC(=O)[C@H](CCCCN)NC(=O)[C@H](CC(C)C)NC(=O)[C@H](CCCCN)NC(=O)[C@H](CCCCN)NC(=O)[C@H](CC(C)C)NC(=O)[C@H](C)NC(=O)[C@H](CCCCN)NC(=O)[C@H](CCCCN)NC(=O)[C@H](CC(C)C)NC(=O)[C@H](C)NC(=O)[C@H](CCCCN)NC(=O)[C@H](CC(C)C)NC(=O)[C@H](C)NC(=O)[C@H](CC(C)C)NC(=O)[C@H](C)NC(=O)[C@@H](N)Cc1ccccc1)C(=O)O` [DP-1] the “change in the number of primary amino groups before and after trypsin digestion” value was “an increase”.
